The source of these data is the supplement of paper PMC10849652.

By UniProt entry, the sequences of proteins in these tests, tags left out. Where a name states a change or a piece, a line headed by the entry shows the natural chain unless it says otherwise.
UniProt P33992: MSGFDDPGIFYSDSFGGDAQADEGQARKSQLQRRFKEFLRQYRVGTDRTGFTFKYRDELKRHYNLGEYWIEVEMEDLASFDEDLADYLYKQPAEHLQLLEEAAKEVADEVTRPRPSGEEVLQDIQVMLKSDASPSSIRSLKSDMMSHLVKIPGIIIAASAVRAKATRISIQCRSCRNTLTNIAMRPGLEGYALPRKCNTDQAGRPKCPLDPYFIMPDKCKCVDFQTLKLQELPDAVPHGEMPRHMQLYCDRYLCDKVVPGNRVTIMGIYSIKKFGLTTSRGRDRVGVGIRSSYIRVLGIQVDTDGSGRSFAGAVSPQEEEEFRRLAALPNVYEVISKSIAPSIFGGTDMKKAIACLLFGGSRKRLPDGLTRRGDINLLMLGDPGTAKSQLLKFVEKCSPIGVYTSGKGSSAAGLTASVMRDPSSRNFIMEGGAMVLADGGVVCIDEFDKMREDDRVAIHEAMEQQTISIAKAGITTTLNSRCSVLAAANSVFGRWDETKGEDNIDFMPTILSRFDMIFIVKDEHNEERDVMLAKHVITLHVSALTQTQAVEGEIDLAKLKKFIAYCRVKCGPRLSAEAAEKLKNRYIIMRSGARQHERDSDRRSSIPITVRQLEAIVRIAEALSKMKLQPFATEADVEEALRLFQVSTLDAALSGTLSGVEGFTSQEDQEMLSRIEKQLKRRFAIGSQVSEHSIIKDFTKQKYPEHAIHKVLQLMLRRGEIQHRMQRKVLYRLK
UniProt Q9NRN9: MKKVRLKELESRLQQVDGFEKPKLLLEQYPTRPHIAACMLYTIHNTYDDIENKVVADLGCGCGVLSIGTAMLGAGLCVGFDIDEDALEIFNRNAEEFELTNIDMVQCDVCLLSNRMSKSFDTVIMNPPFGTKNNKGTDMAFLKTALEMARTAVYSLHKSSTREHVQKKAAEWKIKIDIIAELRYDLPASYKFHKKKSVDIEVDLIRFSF
UniProt Q6P1Q9: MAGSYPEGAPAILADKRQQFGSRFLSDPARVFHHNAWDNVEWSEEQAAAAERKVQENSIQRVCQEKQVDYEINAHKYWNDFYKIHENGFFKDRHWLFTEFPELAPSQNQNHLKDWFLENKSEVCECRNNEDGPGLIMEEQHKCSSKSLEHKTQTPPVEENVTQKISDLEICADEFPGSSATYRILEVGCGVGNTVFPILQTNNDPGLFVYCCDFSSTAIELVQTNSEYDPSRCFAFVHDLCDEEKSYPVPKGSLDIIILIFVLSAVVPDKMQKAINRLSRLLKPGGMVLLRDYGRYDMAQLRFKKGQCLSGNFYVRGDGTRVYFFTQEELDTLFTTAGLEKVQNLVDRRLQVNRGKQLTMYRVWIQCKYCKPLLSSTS
UniProt Q9NZL9, whole entry, looked up: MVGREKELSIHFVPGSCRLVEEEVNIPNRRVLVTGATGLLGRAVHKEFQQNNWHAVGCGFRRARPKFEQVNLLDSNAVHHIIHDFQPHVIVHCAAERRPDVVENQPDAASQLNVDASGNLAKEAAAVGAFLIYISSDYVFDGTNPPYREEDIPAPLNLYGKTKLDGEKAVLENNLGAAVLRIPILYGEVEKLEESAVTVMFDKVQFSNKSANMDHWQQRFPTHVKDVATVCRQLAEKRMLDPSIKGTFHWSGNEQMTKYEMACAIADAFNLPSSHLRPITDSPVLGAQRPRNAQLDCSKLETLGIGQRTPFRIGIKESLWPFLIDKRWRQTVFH
UniProt Q8WXB1: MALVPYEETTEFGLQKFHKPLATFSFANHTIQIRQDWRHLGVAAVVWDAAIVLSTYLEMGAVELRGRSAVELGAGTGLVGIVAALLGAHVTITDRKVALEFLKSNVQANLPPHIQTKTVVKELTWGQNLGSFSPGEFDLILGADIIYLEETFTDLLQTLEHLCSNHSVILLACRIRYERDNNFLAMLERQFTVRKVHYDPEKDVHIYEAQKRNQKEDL
UniProt Q12866: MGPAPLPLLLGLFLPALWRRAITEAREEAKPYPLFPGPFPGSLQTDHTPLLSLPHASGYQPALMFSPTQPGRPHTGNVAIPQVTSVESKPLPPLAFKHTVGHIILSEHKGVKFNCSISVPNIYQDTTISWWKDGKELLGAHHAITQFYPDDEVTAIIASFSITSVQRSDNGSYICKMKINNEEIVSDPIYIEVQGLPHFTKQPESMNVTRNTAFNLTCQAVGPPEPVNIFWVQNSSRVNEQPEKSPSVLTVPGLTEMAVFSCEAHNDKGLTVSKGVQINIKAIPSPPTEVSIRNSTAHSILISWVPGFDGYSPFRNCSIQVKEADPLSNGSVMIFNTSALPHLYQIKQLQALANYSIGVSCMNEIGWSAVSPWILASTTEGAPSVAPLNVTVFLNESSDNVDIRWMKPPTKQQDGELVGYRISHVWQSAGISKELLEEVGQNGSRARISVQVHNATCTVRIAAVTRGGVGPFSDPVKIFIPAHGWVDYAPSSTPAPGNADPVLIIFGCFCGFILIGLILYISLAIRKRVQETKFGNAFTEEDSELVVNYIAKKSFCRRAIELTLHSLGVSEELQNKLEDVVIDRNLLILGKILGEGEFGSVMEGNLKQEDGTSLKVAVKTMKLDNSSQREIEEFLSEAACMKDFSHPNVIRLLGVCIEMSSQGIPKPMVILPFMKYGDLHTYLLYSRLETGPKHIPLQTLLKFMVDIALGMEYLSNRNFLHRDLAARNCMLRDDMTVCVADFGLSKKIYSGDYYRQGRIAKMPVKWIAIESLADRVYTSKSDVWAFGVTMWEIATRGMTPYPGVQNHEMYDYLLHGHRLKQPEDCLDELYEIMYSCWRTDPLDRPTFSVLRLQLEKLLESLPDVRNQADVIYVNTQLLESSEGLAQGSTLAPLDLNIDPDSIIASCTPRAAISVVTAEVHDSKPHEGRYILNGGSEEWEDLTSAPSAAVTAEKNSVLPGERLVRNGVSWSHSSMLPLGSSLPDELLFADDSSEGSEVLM
UniProt P25205: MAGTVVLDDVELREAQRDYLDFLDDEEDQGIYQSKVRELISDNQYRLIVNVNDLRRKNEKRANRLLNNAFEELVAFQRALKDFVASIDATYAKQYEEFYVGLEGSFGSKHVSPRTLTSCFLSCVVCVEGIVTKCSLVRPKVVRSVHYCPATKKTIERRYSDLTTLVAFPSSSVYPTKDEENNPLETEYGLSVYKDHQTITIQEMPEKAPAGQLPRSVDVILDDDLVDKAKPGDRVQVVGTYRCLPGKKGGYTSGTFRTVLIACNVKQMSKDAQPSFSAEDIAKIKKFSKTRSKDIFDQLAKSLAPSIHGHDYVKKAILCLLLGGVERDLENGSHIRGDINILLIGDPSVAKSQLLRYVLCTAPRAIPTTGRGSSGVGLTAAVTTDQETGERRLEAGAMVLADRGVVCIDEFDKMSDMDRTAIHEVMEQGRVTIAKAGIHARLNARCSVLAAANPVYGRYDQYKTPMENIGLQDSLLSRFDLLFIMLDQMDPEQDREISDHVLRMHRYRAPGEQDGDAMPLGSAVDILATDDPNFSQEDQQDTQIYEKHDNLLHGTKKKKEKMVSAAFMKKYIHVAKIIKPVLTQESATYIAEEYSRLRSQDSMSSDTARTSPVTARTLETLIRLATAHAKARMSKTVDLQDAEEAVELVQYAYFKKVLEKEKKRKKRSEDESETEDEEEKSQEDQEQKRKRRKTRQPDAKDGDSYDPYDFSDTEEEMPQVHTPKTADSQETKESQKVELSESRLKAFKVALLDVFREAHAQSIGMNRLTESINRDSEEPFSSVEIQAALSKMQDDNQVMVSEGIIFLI
UniProt Q9HCC0: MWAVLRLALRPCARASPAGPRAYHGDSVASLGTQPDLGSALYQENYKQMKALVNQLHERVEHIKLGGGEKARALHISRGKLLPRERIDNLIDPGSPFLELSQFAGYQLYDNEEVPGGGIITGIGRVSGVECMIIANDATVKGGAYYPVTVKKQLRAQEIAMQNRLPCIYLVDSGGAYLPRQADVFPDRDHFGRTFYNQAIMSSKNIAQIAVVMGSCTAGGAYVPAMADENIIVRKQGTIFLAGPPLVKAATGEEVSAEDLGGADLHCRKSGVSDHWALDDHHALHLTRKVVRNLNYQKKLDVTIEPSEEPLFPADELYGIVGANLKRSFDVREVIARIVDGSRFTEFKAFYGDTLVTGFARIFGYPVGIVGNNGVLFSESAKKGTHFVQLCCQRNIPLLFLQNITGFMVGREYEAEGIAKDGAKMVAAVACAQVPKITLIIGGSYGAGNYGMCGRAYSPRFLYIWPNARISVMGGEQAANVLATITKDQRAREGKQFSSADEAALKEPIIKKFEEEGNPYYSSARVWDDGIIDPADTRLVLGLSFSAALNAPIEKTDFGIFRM
UniProt Q96HR3: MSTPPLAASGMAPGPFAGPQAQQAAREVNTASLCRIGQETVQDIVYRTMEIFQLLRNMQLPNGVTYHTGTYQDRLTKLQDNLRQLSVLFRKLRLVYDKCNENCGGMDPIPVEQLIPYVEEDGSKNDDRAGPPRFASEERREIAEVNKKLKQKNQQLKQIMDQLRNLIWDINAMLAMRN
UniProt Q8TCB7: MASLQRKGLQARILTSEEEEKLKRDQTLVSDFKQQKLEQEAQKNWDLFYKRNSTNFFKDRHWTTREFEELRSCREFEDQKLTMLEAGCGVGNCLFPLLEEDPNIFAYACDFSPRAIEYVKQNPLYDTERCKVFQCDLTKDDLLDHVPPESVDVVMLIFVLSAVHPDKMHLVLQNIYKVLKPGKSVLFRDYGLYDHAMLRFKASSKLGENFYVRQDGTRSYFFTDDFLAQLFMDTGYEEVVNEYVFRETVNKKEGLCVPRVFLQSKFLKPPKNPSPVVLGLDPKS
UniProt Q96RQ3: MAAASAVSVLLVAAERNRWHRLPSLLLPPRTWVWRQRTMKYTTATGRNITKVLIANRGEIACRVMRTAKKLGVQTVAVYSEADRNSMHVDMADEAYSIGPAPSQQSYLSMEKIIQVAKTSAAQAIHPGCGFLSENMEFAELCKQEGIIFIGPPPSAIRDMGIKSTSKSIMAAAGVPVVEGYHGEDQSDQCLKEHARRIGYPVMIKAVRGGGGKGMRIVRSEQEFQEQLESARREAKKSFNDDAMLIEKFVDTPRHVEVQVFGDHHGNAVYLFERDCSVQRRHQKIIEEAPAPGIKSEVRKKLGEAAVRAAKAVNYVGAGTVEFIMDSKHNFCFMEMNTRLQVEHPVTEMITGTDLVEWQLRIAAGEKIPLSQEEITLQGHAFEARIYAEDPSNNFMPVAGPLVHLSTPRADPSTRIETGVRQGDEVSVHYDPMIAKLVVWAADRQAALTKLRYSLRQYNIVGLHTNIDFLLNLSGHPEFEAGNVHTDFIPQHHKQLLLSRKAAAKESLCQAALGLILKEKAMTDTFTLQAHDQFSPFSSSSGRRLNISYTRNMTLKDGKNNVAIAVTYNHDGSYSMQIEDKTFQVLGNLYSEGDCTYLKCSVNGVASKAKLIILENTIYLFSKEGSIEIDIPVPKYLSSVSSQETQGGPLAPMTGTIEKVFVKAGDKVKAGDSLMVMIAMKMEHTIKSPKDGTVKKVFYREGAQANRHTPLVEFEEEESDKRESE
UniProt Q14728: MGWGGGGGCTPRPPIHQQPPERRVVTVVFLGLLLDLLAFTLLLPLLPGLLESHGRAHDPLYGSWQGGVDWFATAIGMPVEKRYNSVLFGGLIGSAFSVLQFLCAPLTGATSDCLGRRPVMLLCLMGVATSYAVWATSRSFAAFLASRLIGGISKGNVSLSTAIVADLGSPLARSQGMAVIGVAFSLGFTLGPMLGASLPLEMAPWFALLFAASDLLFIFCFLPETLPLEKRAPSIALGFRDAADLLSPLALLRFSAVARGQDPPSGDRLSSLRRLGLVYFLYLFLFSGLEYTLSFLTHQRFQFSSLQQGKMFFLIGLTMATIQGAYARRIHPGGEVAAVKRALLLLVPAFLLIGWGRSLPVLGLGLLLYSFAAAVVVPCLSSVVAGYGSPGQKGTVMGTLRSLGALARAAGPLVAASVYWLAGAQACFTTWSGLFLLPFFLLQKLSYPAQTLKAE
UniProt Q9NR56: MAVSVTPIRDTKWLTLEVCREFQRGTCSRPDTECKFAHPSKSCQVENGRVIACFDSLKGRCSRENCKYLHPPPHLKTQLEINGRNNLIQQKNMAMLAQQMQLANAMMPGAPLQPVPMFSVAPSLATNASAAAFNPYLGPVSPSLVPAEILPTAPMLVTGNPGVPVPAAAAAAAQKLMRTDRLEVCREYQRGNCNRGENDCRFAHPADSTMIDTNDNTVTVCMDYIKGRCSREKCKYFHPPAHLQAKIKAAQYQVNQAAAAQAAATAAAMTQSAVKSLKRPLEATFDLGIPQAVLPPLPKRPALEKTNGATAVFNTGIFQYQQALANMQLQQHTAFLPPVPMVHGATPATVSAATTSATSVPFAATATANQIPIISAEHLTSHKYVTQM
UniProt O95983: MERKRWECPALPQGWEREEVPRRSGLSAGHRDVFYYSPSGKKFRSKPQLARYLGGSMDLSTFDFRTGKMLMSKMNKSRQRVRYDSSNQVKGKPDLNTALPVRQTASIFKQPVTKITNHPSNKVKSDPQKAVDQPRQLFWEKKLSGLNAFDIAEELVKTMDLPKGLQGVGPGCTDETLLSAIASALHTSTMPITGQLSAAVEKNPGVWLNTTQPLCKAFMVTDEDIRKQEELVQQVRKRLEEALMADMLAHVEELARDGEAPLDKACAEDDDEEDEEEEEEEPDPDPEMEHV

Some of the results follow.

Compound in the experiment: C[C@@H]1COCCN1C2=NC(=NC(=C2)C3(CC3)S(=O)(=O)C)C4=C5C=CNC5=CC=C4
Briefly: log2 fold change, soluble protein after heating vs DMSO (PISA); higher = thermal stabilisation; K562 cells, 10 uM, 30 min; active = over 0.2 and 3.5 SD of the protein, either way, in both replicates (recomputed). The gist of the method:
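Soluble protein was defined as the supernatant after 21,000xg for 90 min. It came from K562 cells at 2×10^6 cells/mL given 10 μM compound for 30 min, heated in aliquots for 3 min across 48°C-58°C, pooled, and extracted in PBS with 0.5% NP-40 at 4°C, and was quantified by TMTpro 16plex LC-MS/MS with equalised channel sums. Thermal stability against control samples, from duplicates, is reported as log2 fold change.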
With MIB1 (UniProt Q86YT6), the log2 fold change is inactive: 0.058.
Take MCM2 (UniProt P49736): the log2 fold change was inactive: 0.075.
The same measure for MESD (UniProt Q14696): inactive: -0.001; for MCRIP1 (UniProt I3L4Q0): inactive: 0.036; for MDN1 (UniProt Q9NU22): inactive: 0.094.
With MED23 (UniProt Q9ULK4) the figure was inactive: 0.016.
With METTL7A (UniProt Q9H8H3) the figure was inactive: 0.018.
For MCM5 (UniProt P33992), the log2 fold change was inactive: 0.025.
As to METTL5 (UniProt Q9NRN9), the log2 fold change is inactive: 0.039.
With MECR (UniProt Q9BV79), the log2 fold change was inactive: 0.135.
On to METTL2B (UniProt Q6P1Q9), for which the log2 fold change is inactive: 0.117.
With MBOAT1 (UniProt Q6ZNC8) the figure was inactive: 0.087; with MEF2C isoform 5 (UniProt Q06413), inactive: -0.151; with MAT2B (UniProt Q9NZL9), inactive: 0.05.
As to METTL21A (UniProt Q8WXB1), the log2 fold change is inactive: 0.114.
MERTK (UniProt Q12866): the log2 fold change was inactive: -0.161.
The same measure for MCM3 isoform 2 (UniProt P25205): inactive: 0.032.
For the target MCCC2 (UniProt Q9HCC0), the log2 fold change is inactive: 0.027.
For MED30 (UniProt Q96HR3), the log2 fold change is inactive: -0.024.
For METTL6 (UniProt Q8TCB7), the log2 fold change was inactive: 0.191.
Take MED18 (UniProt Q9BUE0): the log2 fold change was inactive: -0.136.
As to MFAP1 (UniProt P55081), the log2 fold change is inactive: -0.056.
Turning to MCCC1 (UniProt Q96RQ3), the log2 fold change is inactive: 0.11.
The same measure for MGAT4B isoform 3 (UniProt Q9UQ53): inactive: 0.028; for MED14 (UniProt O60244): inactive: 0.024.
Consider MFSD10 (UniProt Q14728), for which the log2 fold change is inactive: 0.06.
On to METAP1 (UniProt P53582), for which the log2 fold change is inactive: -0.035.
As for MGST3 (UniProt O14880), the log2 fold change is inactive: -0.013.
In the case of METAP2 (UniProt P50579), the log2 fold change is inactive: -0.018.
Consider MCRIP2 (UniProt Q9BUT9), for which the log2 fold change was inactive: 0.192.
With MBNL1 (UniProt Q9NR56), the log2 fold change is inactive: -0.024.
On to MEAF6 isoform 3 (UniProt Q9HAF1), for which the log2 fold change was inactive: -0.08.
With MFSD14B (UniProt Q5SR56) the figure was inactive: -0.261; with MBD3 (UniProt O95983), inactive: 0.019.
With MED15 (UniProt Q96RN5) the figure was inactive: 0.
As to MED24 (UniProt O75448), the log2 fold change was inactive: 0.027.
In the case of MEF2D (UniProt Q14814), the log2 fold change is inactive: 0.106.
With METTL25 (UniProt Q8N6Q8) the figure was inactive: -0.099.
For the target MED10 (UniProt Q9BTT4), the log2 fold change is inactive: 0.179.
